The text below walks through data of patent US20080241144A1.

Assay [1] addresses T1, Prohibitin (PHB) (Homo sapiens) (UniProt P35232).
T1 sequence: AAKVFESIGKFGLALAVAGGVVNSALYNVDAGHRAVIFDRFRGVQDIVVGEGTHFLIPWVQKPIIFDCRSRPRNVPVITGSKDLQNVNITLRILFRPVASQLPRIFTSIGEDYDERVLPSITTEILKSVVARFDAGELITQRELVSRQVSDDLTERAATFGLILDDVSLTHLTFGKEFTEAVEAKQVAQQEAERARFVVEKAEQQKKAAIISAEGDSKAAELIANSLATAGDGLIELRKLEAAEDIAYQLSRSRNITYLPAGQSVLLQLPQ
Briefly: co-immunoprecipitation: PHB IP from HeLa lysates, Raf-1 immunoblot (FIG. S3). (In general: Immunoblotting shows a protein as a band on a membrane.)

The target of assay [2] is T1, Prohibitin (PHB) (Homo sapiens). The assay is described as follows: co-immunoprecipitation: endogenous PHB precipitated from EGF or buffer treated HeLa cells, Raf-1 immunoblot.
Assay [3] has the same target. Briefly: co-immunoprecipitation: PHB IP from HeLa lysates, Raf-1 pS338 immunoblot (FIG. S3).
Assay [4] shares this target. The assay is described as follows: co-immunoprecipitation: endogenous PHB precipitated from EGF or buffer treated HeLa cells, Raf-1 pS338 immunoblot.

Results are given in words; binding and its absence hold for the method and conditions named. Binding seen in cells or lysates may run through a third protein. Some entries that bind do so weakly or less than the wild type.

As for “Raf-1 (from UniProt P04049 1-648) (enzyme)”, the binding entry in assay [1] and in assay [2] was “binds” each time.
Consider “Raf-1 pS338 (from UniProt P04049 1-648) (enzyme)”, for which the binding result in assay [3] and in assay [4] was “binds” throughout.
